Reference: US20220192985A1, “METHOD OF PRODUCTION OF A COMPOSITE OF YEAST-DERIVED BETA GLUCAN PARTICLE WITH INCORPORATED POORLY-WATER-SOLUBLE LOW-MOLECULAR-WEIGHT COMPOUND, PHARMACEUTICAL PREPARATION AND USE THEREOF” (VYSOKA SKOLA CHEMICKO-TECHNOLOGICKA V PRAZE, priority 2019, published 2022)

Legend:
Assay type in all cases: physicochemical
[1] = Powder rheology shear test (FT4), Comparative Example 9; details: pre-sheared at 3 kPa; mass ratio 10%
Method: Shear tests were performed on the samples a Powder Rheometer FT4 (pre-sheared at 3 kPa consolidation and initial mass of 0.6-0.7 g). The tests were carried out per duplicate under laboratory conditions (21.2±0.7° C. and 35.1±2.0% relative humidity).

[2] = Powder rheology shear test (FT4), Example 8; details: pre-sheared at 3 kPa; ATO/GP mass ratio 25%
Method: (§1) The moisture (water content) of the samples was firstly measure using a moisture analysis balance (simple test, 100° C., 5 mg initial mass, infrared drying). The samples, ATO/GP-SD, ATO/GP-RE and crude ATO, contained 5% wt., 3% wt. and 2.5% wt. of moisture respectively. Afterwards, the samples were exposed to laboratory humidity (21° C. and 28% relative humidity), for 24 hours and the moisture content was measured again (9% wt. for ATO/GP-SD, 9% for ATO/GP-RE, and 5% for ATO). The samples were then dried for 24 hours in the oven with very-slowly-moving fan at 30° C. Finally, a shear test (FIG. 15) was performed on the samples a Powder Rheometer FT4 (pre-sheared at 3 kPa consolidation and initial mass of 0.6-0.7 g).

[3] = Moisture (water content), moisture analysis balance; details: 21° C. and 28% relative humidity, 24 hours
Method: as §1

UYS (Unconfined Yield Strength) [1]: 4.57 ± 1.07 kPa
UYS (Unconfined Yield Strength) [2]: 4.27 kPa
moisture content after exposure to laboratory humidity [3]: 5 % wt.
Compound: CC(C)c1c(C(=O)Nc2ccccc2)c(-c2ccccc2)c(-c2ccc(F)cc2)n1CC[C@@H](O)C[C@@H](O)CC(=O)O [Crude ATO, atorvastatin]
